Measurements published in article PMC8961561.
These are yes or no findings as the source states them, for the method shown. Some results given as binding are weak or reduced against the parent protein; the word gives no strength. One block for each substance: values may come before it.

Sequences of proteins named here, by UniProt entry; tags and fusion partners are left off. Residues count along the entry.
UniProt P16410, residues 36-223: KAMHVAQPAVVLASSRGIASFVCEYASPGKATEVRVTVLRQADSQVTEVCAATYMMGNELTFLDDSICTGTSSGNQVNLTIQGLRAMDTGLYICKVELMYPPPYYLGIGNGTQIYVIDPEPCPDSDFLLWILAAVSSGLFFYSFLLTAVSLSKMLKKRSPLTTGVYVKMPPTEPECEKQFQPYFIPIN
UniProt P80188, residues 21-198: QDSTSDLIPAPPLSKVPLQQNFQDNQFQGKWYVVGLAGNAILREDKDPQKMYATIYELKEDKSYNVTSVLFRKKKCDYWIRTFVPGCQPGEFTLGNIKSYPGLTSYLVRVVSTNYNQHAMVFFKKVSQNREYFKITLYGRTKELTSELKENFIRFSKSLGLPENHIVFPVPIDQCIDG
UniProt P37173, residues 23-567: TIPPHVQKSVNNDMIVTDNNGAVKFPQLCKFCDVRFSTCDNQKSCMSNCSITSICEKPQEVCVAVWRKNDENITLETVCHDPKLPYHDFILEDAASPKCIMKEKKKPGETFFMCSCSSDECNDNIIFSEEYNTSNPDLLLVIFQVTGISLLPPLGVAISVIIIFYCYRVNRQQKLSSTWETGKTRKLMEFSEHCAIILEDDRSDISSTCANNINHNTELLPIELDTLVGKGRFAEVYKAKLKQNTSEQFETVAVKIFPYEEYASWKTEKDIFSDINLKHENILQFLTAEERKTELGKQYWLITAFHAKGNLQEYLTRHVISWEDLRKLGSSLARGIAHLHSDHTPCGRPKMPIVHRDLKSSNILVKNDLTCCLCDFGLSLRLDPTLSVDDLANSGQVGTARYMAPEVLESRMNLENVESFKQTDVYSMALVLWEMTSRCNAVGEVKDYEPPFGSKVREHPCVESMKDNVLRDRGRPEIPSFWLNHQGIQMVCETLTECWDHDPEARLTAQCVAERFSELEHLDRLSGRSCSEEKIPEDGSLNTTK

Legend:
Test in all cases: peptide or protein array; PEPscan: overlapping dodecapeptides (two amino acid shift) spanning the complete sequence of one partner on a cellulose membrane; saturated with 3% non-fat dry milk/3% BSA; incubated with the purified protein partner (4 mg/mL, 4 °C, overnight); antibody against that protein, HRP-conjugated secondary antibody, ECL; both purified
[1] = target: T1, NGAL fragment …
T1 sequence (peptide): NAILREDKDPQKMY

[2] = target: T2, NGAL fragment …; remark: listed apart in the source
T2 sequence (peptide): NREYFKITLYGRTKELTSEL

[3] = target: T3, NGAL fragment …; remark: listed apart in the source
T3 sequence (peptide): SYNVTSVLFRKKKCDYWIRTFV

[4] = target: T4, NGAL fragment …; remark: listed apart in the source
T4 sequence (peptide): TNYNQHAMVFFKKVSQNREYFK

[5] = target: T5, CTLA4 fragment …
T5 sequence (peptide): EYASPGKATEVRVT

[6] = target: T6, CTLA4 fragment …; remark: listed apart in the source
T6 sequence (peptide): TEVRVTVLRQADSQVT

[7] = target: T7, TGFβ3 fragment …
T7 sequence (peptide): YIDFRQDLGWKWVHEPKG

binding [1]: binds | binding [2]: binds | binding [3]: binds | binding [4]: binds
Substance: CTLA-4 (from UniProt P16410 36-223)

binding [5]: binds | binding [6]: binds
Substance: Neutrophil Gelatinase-Associated Lipocalin (NGAL) (from UniProt P80188 21-198)

binding [7]: binds
Substance: Tumor Growth Factor Receptor (TGFbetaR2) (from UniProt P37173 23-567)
